Test results published in patent US6355416B1, “Assay for the measurement of DNA synthesis rates” (The George Washington University, priority 1997, dated 2002).

Test system: HEP G2 cells
[1] = 33% labeled glycine, after four days of incubation, HEP G2 DNA
[2] = growth experiment, continuous labeling with 3.3% 1-13C-glycine over five days, ± SE of fitted parameter
[3] = wash out over nine days after one-day pulse of 9% enriched glycine, Day 0 not used

SMILES: NC[13C](=O)O [1-^13C-glycine]
- dA enrichment δ13C [1]: +375 %‰
- dG enrichment δ13C [1]: +321 %‰
- selectivity of label incorporation into DNA bases (HEP G2 DNA): selectively incorporated into purines and not into pyrimidines
- doubling time for the HEP G2 cells using dG kinetics [2]: 2.2 ± 1.2 days
- doubling time for the HEP G2 cells using the kinetics of dA enrichment [2]: 2.3 ± 0.4 days
- δ13C value of dT (over five days of labeling with 3.3% 1-13C-glycine, mean±SD, N=7): −15.8 %‰
- doubling time from wash out of label, dA [3]: 2.6 ± 0.3 days
- doubling time from wash out of label, dG [3]: 2.4 ± 0.1 days
